The values below come from patent US20100138941A1.

Amino acid sequences for entries named in this document (tags omitted). Residues count along the entry.
UniProt P08113, residues 22-802: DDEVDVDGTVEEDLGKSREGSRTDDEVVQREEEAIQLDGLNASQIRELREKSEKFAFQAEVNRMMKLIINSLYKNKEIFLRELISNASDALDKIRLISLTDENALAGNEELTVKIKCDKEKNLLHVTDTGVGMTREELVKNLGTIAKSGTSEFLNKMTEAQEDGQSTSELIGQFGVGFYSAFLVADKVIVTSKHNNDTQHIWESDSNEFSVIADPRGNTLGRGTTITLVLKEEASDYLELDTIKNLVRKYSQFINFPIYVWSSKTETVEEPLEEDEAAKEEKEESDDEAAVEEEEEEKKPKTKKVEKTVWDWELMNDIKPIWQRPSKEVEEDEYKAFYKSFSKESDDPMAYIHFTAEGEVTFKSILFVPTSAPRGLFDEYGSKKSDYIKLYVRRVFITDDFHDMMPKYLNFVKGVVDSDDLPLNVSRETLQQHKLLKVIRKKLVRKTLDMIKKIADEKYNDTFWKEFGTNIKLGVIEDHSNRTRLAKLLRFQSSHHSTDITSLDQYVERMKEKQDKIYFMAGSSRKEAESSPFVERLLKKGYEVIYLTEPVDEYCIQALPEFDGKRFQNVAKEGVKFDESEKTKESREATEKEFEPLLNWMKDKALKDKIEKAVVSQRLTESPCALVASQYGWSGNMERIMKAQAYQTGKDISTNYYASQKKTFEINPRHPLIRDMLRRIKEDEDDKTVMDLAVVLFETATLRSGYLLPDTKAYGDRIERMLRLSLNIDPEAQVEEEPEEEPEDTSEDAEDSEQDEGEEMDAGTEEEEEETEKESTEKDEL

For experiment [1], the target named is gp96 from mouse pancreas protein extract (mouse) (UniProt P08113). The experiment is described as follows: affinity purification from mouse pancreas extract on biotin-AIMP1 streptavidin beads, mass spectrometry.
Experiment [2] has the same target. The experiment is described as follows: affinity purification from mouse pancreas extract on biotin-AIMP1 streptavidin beads, SDS-PAGE silver staining, mass spectrometry.

No constants are given. Whether binding was seen depends on the method and setting. In cells and extracts the contact can be indirect. Here binding means that the protein was enriched with, or labelled near, the bait; the list need not be complete.

B1: biotin-conjugated recombinant AIMP1 protein (protein)
chain: MANNDAVLKRLEQKGAEADQIIEYLKQQVSLLKEKAILQATLREEKKLRVENAKLKKEIEELKQELIQAEIQNGVKQIAFPSGTPLHANSMVSENVIQSTAVTTVSSGTKEQIKGGTGDEKKAKEKIEKKGEKKEKKQQSIAGSADSKPIDVSRLDLRIGCIITARKHPDADSLYVEEVDVGEIAPRTVVSGLVNHVPLEQMQNRMVILLCNLKPAKMRGVLSQAMVMCASSPEKIEILAPPNGSVPGDRITFDAFPGEPDKELNPKKKIWEQIQPDLHTNDECVATYKGVPFEVKGKGVCRAQTMSNSGIK
modifications: conjugated to biotin with sulfo-biotin reagent (sites not given)
Take B1: the binding entry in experiment [1] and in experiment [2] was “binds” each time.
